Reference: PubChem BioAssay AID186 (DTP/NCI, 2004)
Shown are survivors of the treated group in tumour-free mice. Counts of survivors are from the toxicity check (mostly the fifth day) where no day follows; animals may have died later. Schedule codes are those of the source, taken here to give the interval after Q, in days (D) or hours (H), and the number of doses after X. Some entries were tested several times; the values are given in rising order.

Test system: B6D2F1 mice, nontumored toxicity test, survival
Assay: NCI In Vivo Anticancer Drug Screen. Data for tumor model Nontumored Animals (Toxicity Test) in B6D2F1 (BDF1) mice
[1] = dose: 3.12 mg/kg/injection, schedule: Q01DX009 (ip), vehicle: saline
[2] = dose: 4.0 mg/kg/injection, schedule: Q01DX009 (ip), vehicle: saline
[3] = dose: 6.25 mg/kg/injection, schedule: Q01DX009 (ip), vehicle: saline
[4] = dose: 6.25 mg/kg/injection, schedule: Q03HX008 (ip), vehicle: saline
[5] = dose: 6.25 mg/kg/injection, schedule: Q03HX016 (ip), vehicle: saline
[6] = dose: 6.25 mg/kg/injection, schedule: Q03HX024 (ip), vehicle: saline
[7] = dose: 8.0 mg/kg/injection, schedule: Q01DX009 (ip), vehicle: saline
[8] = dose: 12.5 mg/kg/injection, schedule: Q01DX009 (ip), vehicle: saline
[9] = dose: 12.5 mg/kg/injection, schedule: Q03HX008 (ip), vehicle: saline
[10] = dose: 12.5 mg/kg/injection, schedule: Q03HX016 (ip), vehicle: saline
[11] = dose: 12.5 mg/kg/injection, schedule: Q03HX024 (ip), vehicle: saline
[12] = dose: 16.0 mg/kg/injection, schedule: Q01DX009 (ip), vehicle: saline
[13] = dose: 25.0 mg/kg/injection, schedule: Q01DX001 (ip), vehicle: saline
[14] = dose: 25.0 mg/kg/injection, schedule: Q03HX008 (ip), vehicle: saline
[15] = dose: 25.0 mg/kg/injection, schedule: Q03HX016 (ip), vehicle: saline
[16] = dose: 25.0 mg/kg/injection, schedule: Q04DX003 (ip), vehicle: saline
[17] = dose: 25.0 mg/kg/injection, schedule: Q08DX002 (ip), vehicle: saline
[18] = dose: 32.0 mg/kg/injection, schedule: Q01DX009 (ip), vehicle: saline
[19] = dose: 50.0 mg/kg/injection, schedule: Q01DX001 (ip), vehicle: saline
[20] = dose: 50.0 mg/kg/injection, schedule: Q03HX008 (ip), vehicle: saline
[21] = dose: 50.0 mg/kg/injection, schedule: Q04DX003 (ip), vehicle: saline
[22] = dose: 50.0 mg/kg/injection, schedule: Q08DX002 (ip), vehicle: saline
[23] = dose: 100.0 mg/kg/injection, schedule: Q01DX001 (ip), vehicle: saline
[24] = dose: 100.0 mg/kg/injection, schedule: Q04DX003 (ip), vehicle: saline
[25] = dose: 100.0 mg/kg/injection, schedule: Q08DX002 (ip), vehicle: saline
[26] = dose: 200.0 mg/kg/injection, schedule: Q01DX001 (ip), vehicle: saline
[27] = dose: 200.0 mg/kg/injection, schedule: Q04DX003 (ip), vehicle: saline
[28] = dose: 200.0 mg/kg/injection, schedule: Q08DX002 (ip), vehicle: saline
[29] = dose: 400.0 mg/kg/injection, schedule: Q01DX001 (ip), vehicle: saline
[30] = dose: 400.0 mg/kg/injection, schedule: Q08DX002 (ip), vehicle: saline

NC(Cc1cc(I)c(Oc2cc(I)c(O)c(I)c2)c(I)c1)C(=O)O (stereo not drawn)
survivor count (dose: 0.63 mg/kg/injection, schedule: Q01DX009 (ip), vehicle: saline): 5 of 5 | survivor count (dose: 2.5 mg/kg/injection, schedule: Q01DX009 (ip), vehicle: saline): 5 of 5 | survivor count (dose: 10.0 mg/kg/injection, schedule: Q01DX009 (ip), vehicle: saline): 5 of 5 | survivor count (dose: 40.0 mg/kg/injection, schedule: Q01DX009 (ip), vehicle: saline): 5 of 5 | survivor count (dose: 80.0 mg/kg/injection, schedule: Q01DX009 (ip), vehicle: saline): 5 of 5 | survivor count (dose: 160.0 mg/kg/injection, schedule: Q01DX009 (ip), vehicle: saline): 5 of 5

N[C@H](C(=O)O)[C@@H]1CC(Cl)=NO1
survivor count (dose: 0.19 mg/kg/injection, schedule: Q03HX024 (ip), vehicle: saline): 8 of 8 | survivor count (dose: 0.25 mg/kg/injection, schedule: Q01DX009 (ip), vehicle: saline): 8 of 8 | survivor count (dose: 0.39 mg/kg/injection, schedule: Q01DX009 (ip), vehicle: saline): 8 of 8 | survivor count (dose: 0.39 mg/kg/injection, schedule: Q03HX008 (ip), vehicle: saline): 8 of 8 | survivor count (dose: 0.39 mg/kg/injection, schedule: Q03HX016 (ip), vehicle: saline): 8 of 8 | survivor count (dose: 0.39 mg/kg/injection, schedule: Q03HX024 (ip), vehicle: saline): 8 of 8 | survivor count (dose: 0.5 mg/kg/injection, schedule: Q01DX009 (ip), vehicle: saline): 8 of 8 | survivor count (dose: 0.75 mg/kg/injection, schedule: Q01DX009 (ip), vehicle: saline): 5 of 5 | survivor count (dose: 0.78 mg/kg/injection, schedule: Q01DX009 (ip), vehicle: saline): 8 of 8 | survivor count (dose: 0.78 mg/kg/injection, schedule: Q03HX008 (ip), vehicle: saline): 8 of 8 | survivor count (dose: 0.78 mg/kg/injection, schedule: Q03HX016 (ip), vehicle: saline): 8 of 8 | survivor count (dose: 0.78 mg/kg/injection, schedule: Q03HX024 (ip), vehicle: saline): 8 of 8 | survivor count (dose: 1.0 mg/kg/injection, schedule: Q01DX009 (ip), vehicle: saline): 7 of 7 and 8 of 8 | survivor count (dose: 1.5 mg/kg/injection, schedule: Q01DX009 (ip), vehicle: saline): 3 of 4 | survivor count (dose: 1.56 mg/kg/injection, schedule: Q01DX009 (ip), vehicle: saline): 8 of 8 | survivor count (dose: 1.56 mg/kg/injection, schedule: Q03HX008 (ip), vehicle: saline): 8 of 8 | survivor count (dose: 1.56 mg/kg/injection, schedule: Q03HX016 (ip), vehicle: saline): 8 of 8 | survivor count (dose: 1.56 mg/kg/injection, schedule: Q03HX024 (ip), vehicle: saline): 7 of 7 | survivor count (dose: 2.0 mg/kg/injection, schedule: Q01DX009 (ip), vehicle: saline): 8 of 8 | survivor count (dose: 3.0 mg/kg/injection, schedule: Q01DX009 (ip), vehicle: saline): 5 of 5 | survivor count [1]: 8 of 8 | survivor count (dose: 3.12 mg/kg/injection, schedule: Q03HX008 (ip), vehicle: saline): 8 of 8 | survivor count (dose: 3.12 mg/kg/injection, schedule: Q03HX016 (ip), vehicle: saline): 8 of 8 | survivor count (dose: 3.12 mg/kg/injection, schedule: Q03HX024 (ip), vehicle: saline): 8 of 8 | survivor count [2]: 7 of 8 and 8 of 8 | survivor count (dose: 6.0 mg/kg/injection, schedule: Q01DX009 (ip), vehicle: saline): 5 of 5 | survivor count [3]: 8 of 8 | survivor count [4]: 8 of 8 | survivor count [5]: 8 of 8 | survivor count [6]: 8 of 8 | survivor count (dose: 6.25 mg/kg/injection, schedule: Q04DX003 (ip), vehicle: saline): 8 of 8 | survivor count [7]: 8 of 8 | survivor count (dose: 12.0 mg/kg/injection, schedule: Q01DX009 (ip), vehicle: saline): 5 of 5 | survivor count (dose: 12.5 mg/kg/injection, schedule: Q01DX001 (ip), vehicle: saline): 8 of 8 | survivor count [8]: 8 of 8 | survivor count [9]: 8 of 8 | survivor count [10]: 8 of 8 | survivor count [11]: 8 of 8 | survivor count (dose: 12.5 mg/kg/injection, schedule: Q04DX003 (ip), vehicle: saline): 8 of 8 | survivor count (dose: 12.5 mg/kg/injection, schedule: Q08DX002 (ip), vehicle: saline): 8 of 8 | survivor count [12]: 8 of 8 | survivor count [13]: 8 of 8 | survivor count [14]: 5 of 8 | survivor count [15]: 8 of 8 | survivor count [16]: 8 of 8 | survivor count [17]: 8 of 8 | survivor count [18]: 7 of 8 and 8 of 8 | survivor count [19]: 8 of 8 | survivor count [20]: 4 of 8 | survivor count [21]: 8 of 8 | survivor count [22]: 8 of 8 | survivor count [23]: 8 of 8 | survivor count [24]: 8 of 8 | survivor count [25]: 8 of 8 | survivor count [26]: 8 of 8 | survivor count [27]: 8 of 8 | survivor count [28]: 8 of 8 | survivor count [29]: 8 of 8 | survivor count [30]: 8 of 8

N[C@H](C(=O)O)[C@H]1ON=C(Cl)[C@@H]1O
survivor count [1]: 8 of 8 | survivor count [2]: 8 of 8 | survivor count (dose: 4.0 mg/kg/injection, schedule: Q01DX009 (ip), vehicle: saline + alcohol): 8 of 8 | survivor count [3]: 8 of 8 | survivor count [4]: 8 of 8 | survivor count [5]: 8 of 8 | survivor count [6]: 8 of 8 | survivor count [7]: 8 of 8 | survivor count (dose: 8.0 mg/kg/injection, schedule: Q01DX009 (ip), vehicle: saline + alcohol): 8 of 8 | survivor count [8]: 8 of 8 | survivor count [9]: 8 of 8 | survivor count [10]: 8 of 8 | survivor count [11]: 8 of 8 | survivor count [12]: 8 of 8 | survivor count (dose: 16.0 mg/kg/injection, schedule: Q01DX009 (ip), vehicle: saline + alcohol): 8 of 8 | survivor count [13]: 8 of 8 | survivor count (dose: 25.0 mg/kg/injection, schedule: Q01DX009 (ip), vehicle: saline): 8 of 8 | survivor count [14]: 8 of 8 | survivor count [15]: 8 of 8 | survivor count (dose: 25.0 mg/kg/injection, schedule: Q03HX024 (ip), vehicle: saline): 8 of 8 | survivor count [16]: 8 of 8 | survivor count [17]: 8 of 8 | survivor count [18]: 8 of 8 | survivor count (dose: 32.0 mg/kg/injection, schedule: Q01DX009 (ip), vehicle: saline + alcohol): 8 of 8 | survivor count [19]: 8 of 8 | survivor count (dose: 50.0 mg/kg/injection, schedule: Q01DX009 (ip), vehicle: saline): 8 of 8 | survivor count [20]: 8 of 8 | survivor count (dose: 50.0 mg/kg/injection, schedule: Q03HX016 (ip), vehicle: saline): 8 of 8 | survivor count (dose: 50.0 mg/kg/injection, schedule: Q03HX024 (ip), vehicle: saline): 8 of 8 | survivor count [21]: 8 of 8 | survivor count [22]: 8 of 8 | survivor count (dose: 64.0 mg/kg/injection, schedule: Q01DX009 (ip), vehicle: saline): 8 of 8 | survivor count (dose: 64.0 mg/kg/injection, schedule: Q01DX009 (ip), vehicle: saline + alcohol): 8 of 8 | survivor count [23]: 8 of 8 | survivor count (dose: 100.0 mg/kg/injection, schedule: Q01DX009 (ip), vehicle: saline): 8 of 8 | survivor count (dose: 100.0 mg/kg/injection, schedule: Q03HX008 (ip), vehicle: saline): 8 of 8 | survivor count (dose: 100.0 mg/kg/injection, schedule: Q03HX016 (ip), vehicle: saline): 8 of 8 | survivor count (dose: 100.0 mg/kg/injection, schedule: Q03HX024 (ip), vehicle: saline): 8 of 8 | survivor count [24]: 8 of 8 | survivor count [25]: 8 of 8 | survivor count (dose: 128.0 mg/kg/injection, schedule: Q01DX009 (ip), vehicle: saline): 8 of 8 | survivor count (dose: 128.0 mg/kg/injection, schedule: Q01DX009 (ip), vehicle: saline + alcohol): 8 of 8 | survivor count [26]: 8 of 8 | survivor count (dose: 200.0 mg/kg/injection, schedule: Q01DX009 (ip), vehicle: saline): 8 of 8 | survivor count [27]: 8 of 8 | survivor count [28]: 8 of 8 | survivor count (dose: 256.0 mg/kg/injection, schedule: Q01DX009 (ip), vehicle: saline): 8 of 8 | survivor count (dose: 256.0 mg/kg/injection, schedule: Q01DX009 (ip), vehicle: saline + alcohol): 8 of 8 | survivor count [29]: 8 of 8 | survivor count (dose: 400.0 mg/kg/injection, schedule: Q04DX003 (ip), vehicle: saline): 8 of 8 | survivor count [30]: 8 of 8 | survivor count (dose: 512.0 mg/kg/injection, schedule: Q01DX009 (ip), vehicle: saline): 8 of 8 | survivor count (dose: 512.0 mg/kg/injection, schedule: Q01DX009 (ip), vehicle: saline + alcohol): 8 of 8
